Data: article doi:10.1101/2021.06.24.449774
Results are given in words; binding and its absence hold for the method and conditions named. In cells and extracts the contact can be indirect. Some entries that bind do so weakly or less than the wild type.

Protein sequences, listed by entry. Tags and fused reporters are not part of them. Residues count along the entry.
UniProt P12314, residues 16-374: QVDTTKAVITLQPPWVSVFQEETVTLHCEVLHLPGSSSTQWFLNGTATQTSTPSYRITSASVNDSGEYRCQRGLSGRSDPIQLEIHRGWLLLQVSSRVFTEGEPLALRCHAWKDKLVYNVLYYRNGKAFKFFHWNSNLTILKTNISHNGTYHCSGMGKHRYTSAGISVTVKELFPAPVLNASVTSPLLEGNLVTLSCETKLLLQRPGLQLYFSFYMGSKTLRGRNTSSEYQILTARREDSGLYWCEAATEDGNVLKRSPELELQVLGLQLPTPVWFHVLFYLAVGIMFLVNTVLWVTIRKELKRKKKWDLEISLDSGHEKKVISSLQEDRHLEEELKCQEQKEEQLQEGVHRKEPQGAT

Target: FcγRI-GFP (human high affinity IgG receptor FcγRI fused to EGFP) (human) (UniProt P12314)
Assay: co-IP

binding: binds
B1: Insulin Responsive AminoPeptidase (IRAP) (protein, UniProt Q8C129 1-1025)
chain: MESFTNDRLQLPRNMIENSMFEEEPDVVDLAKEPCLHPLEPDEVEYEPRGSRLLVRGLGEHEMDEDEEDYESSAKLLGMSFMNRSSGLRNSAAGYRQSPDGTCSLPSARTLVICVFVIVVAVSVIMVIYLLPRCTFTKEGCHKTNQSAELIQPVATNGKVFPWAQIRLPTAIIPLCYELSLHPNLTSMTFRGSVTISLQALQDTRDIILHSTGHNISRVTFMSAVSSQEKQVEILEYPYHEQIAVVAPEPLLTGHNYTLKIEYSANISNSYYGFYGITYTDKSNEKKYFAATQFEPLAARSAFPCFDEPAFKATFIIKITRNEHHTALSNMPKKSSVPAEEGLIQDEFSESVKMSTYLVAFIVGEMRNLSQDVNGTLVSVYAVPEKIGQVHHALDTTIKLLEFYQTYFEIQYPLKKLDLVAIPDFEAGAMENWGLLTFREETLLYDNATSSVADRKLVTKIIAHELAHQWFGNLVTMQWWNDLWLNEGFATFMEYFSVEKIFKELNSYEDFLDARFKTMRKDSLNSSHPISSSVQSSEQIEEMFDSLSYFKGASLLLMLKSYLSEDVFRHAVILYLHNHSYAAIQSDDLWDSFNEVTDKTLDVKKMMKTWTLQKGFPLVTVQRKGTELLLQQERFFLRMQPESQPSDTSHLWHIPISYVTDGRNYSEYRSVSLLDKKSDVINLTEQVQWVKVNSNMTGYYIVHYAHDDWTALINQLKRNPYVLSDKDRANLINNIFELAGLGKVPLRMAFDLIDYLKNETHTAPITEALFQTNLIYNLLEKLGHMDLSSRLVARVHKLLQNQIQQQTWTDEGTPSMRELRSALLEFACAHSLENCTTMATNLFDSWMASNGTQSLPTDVMVTVFKVGARTEKGWLFLFSMYSSMGSEAEKNKILEALASSEDVHKLYWLMKSSLDGDIIRTQKLSLIIRTVGRHFPGHLLAWDFVKENWNKLVHKFHLGSYTIQSIVAGSTHLFSTKTHLSEVQAFFENQSEATLKLRCVQEALEVIQLNIQWMVRNLKTLSQWL
